From PubChem BioAssay AID248 (DTP/NCI, 2004) come the findings set out here.

The list is a part of this screen's results and no random one: it gathers tests that were run many times, whatever their T/C, doses with no T/C, and many T/C values between a quarter and a half above the control. Other doses and runs of a compound stand elsewhere. T/C is the treated group as % of the vehicle group. Some entries give survivors of the animals treated and no T/C: the source files T/C as zero there, which appears to mark a toxic dose or a test without result, not a measured value. Some survivor counts are full or nearly so, which does not show that the dose was tolerated: the source hardly ever lists a survival T/C far under the control, and the zero likely stands for such cases as well. Counts of survivors are from the toxicity check (mostly the fifth day) where no day follows; animals may have died later. Schedules are NCI's codes, taken here to give the interval after Q, in days (D) or hours (H), and the number of doses after X. Some entries were tested several times; the values are given in rising order. Some schedules carry Z or #; the key to these is not given. For survival time, the PubChem record calls one and a half times the control and up active, and a quarter to a half above the control has no call in these data; cut-offs in other NCI protocols can differ.

The test concerns L1210 leukemia ip in BDF1 mice, survival T/C. Description: NCI In Vivo Anticancer Drug Screen. Data for tumor model L1210 Leukemia (intraperitoneal) in B6D2F1 (BDF1) mice. Conditions: T/C endpoint: mean survival time, higher T/C = longer survival.
[1] abbreviates: dose: 400.0 mg/kg/injection, schedule: Q01DX009 (ip), vehicle: saline with Tween-80.
Setting [2] is: dose: 200.0 mg/kg/injection, schedule: Q01DX001 (ip), vehicle: saline.
The mark [3] stands for this setting: dose: 400.0 mg/kg/injection, schedule: Q01DX001 (ip), vehicle: saline.
[4] abbreviates: dose: 400.0 mg/kg/injection, schedule: Q01DX009 (ip), vehicle: saline.
Where [5] appears, read: dose: 400.0 mg/kg/injection, schedule: Q04DX003 (ip), vehicle: saline.
Where [6] appears, read: dose: 400.0 mg/kg/injection, schedule: Q04DX003 (ip), vehicle: saline with Tween-80.
The mark [7] stands for this setting: dose: 100.0 mg/kg/injection, schedule: Q01DX009 (ip), vehicle: saline.
[8] abbreviates: dose: 400.0 mg/kg/injection, schedule: Q04DX002 (ip), vehicle: saline with Tween-80.
Where [9] appears, read: dose: 40.0 mg/kg/injection, schedule: Q01DX001 (ip), vehicle: saline.
[10] abbreviates: dose: 400.0 mg/kg/injection, schedule: Q01DX009 (ip), vehicle: Klucel (hydroxypropylcellulose) (HPC).
[11] abbreviates: dose: 10.0 mg/kg/injection, schedule: Q01DX Z (ip), vehicle: methylcellulose (MC).

`Nc1c(Cl)c(Cl)nc(C(=O)O)c1Cl`: under “dose: 25.0 mg/kg/injection, schedule: Q01DX009 (ip), vehicle: Klucel (hydroxypropylcellulose) (HPC)”, the survivor count is reported as 0 of 6.

Consider `CCNCC(=O)Nc1ccccc1C(=O)OCC`, for which, under “dose: 500.0 mg/kg/injection, schedule: Q01DX Z (ip), vehicle: saline”, the survivor count is 1 of 6.

For the compound `O=[N+]([O-])CC(OCCCO)C(Cl)(Cl)Cl` (stereo not drawn), the survivor count is, setting by setting: (dose: 25.0 mg/kg/injection, schedule: Q01DX009 (ip), vehicle: saline with Tween-80) 6 of 6; (dose: 100.0 mg/kg/injection, schedule: Q01DX009 (ip), vehicle: saline with Tween-80) 0 of 6; (dose: 200.0 mg/kg/injection, schedule: Q01DX009 (ip), vehicle: saline with Tween-80) 0 of 6; under setting [1], 0 of 6.

`CC(=O)[O][Hg][c]1sc2ccccc2c1C`: the survivor count was 3 of 6 (dose: 13.0 mg/kg/injection, schedule: Q04DX003 (ip), vehicle: acetone); 5 of 6 (dose: 19.0 mg/kg/injection, schedule: Q01DX009 (ip), vehicle: saline with Tween-80); 0 of 6 (dose: 19.0 mg/kg/injection, schedule: Q04DX003 (ip), vehicle: acetone); 2 of 6 (dose: 28.0 mg/kg/injection, schedule: Q01DX009 (ip), vehicle: saline with Tween-80).

For the compound `O=C(N/N=C\c1cc(=O)[nH]c(=O)[nH]1)c1ccccc1`, the survivor count under setting [2] was 2 of 4 and the survivor count under setting [3] was 1 of 4.

In the case of `COc1ccc(CCNC2CC3CCC2(C)C3(C)C)cc1OC` (stereo not drawn), the survivor count under setting [3] is listed as 0 of 3.

As for `CC(=O)Nc1ccc(/C=N\N=C\c2ccc(NC(C)=O)cc2)cc1`, the survivor count under setting [4] is 4 of 6.

Consider `CCCCOCCOCCOc1ccc(C(=O)O)cc1`, for which, under setting [5], the survivor count is 6 of 6.

Consider `COC(=O)C1C2CC(O)C(C2)C1C(=O)OC` (stereo not drawn), for which the survivor count is, setting by setting: (dose: 100.0 mg/kg/injection, schedule: Q04DX003 (ip), vehicle: saline with Tween-80) 6 of 6; (dose: 200.0 mg/kg/injection, schedule: Q04DX003 (ip), vehicle: saline with Tween-80) 0 of 6; under setting [6], 0 of 6.

In the case of `CC1Cc2c(Cl)cc(C(=O)NC(Cc3ccccc3)C(=O)O)c(O)c2C(=O)O1` (stereo not drawn), for the setting “dose: 200.0 mg/kg/injection, schedule: Q01DX001 (ip), vehicle: carboxymethylcellulose (CMC)”, the survivor count was 1 of 6.

In the case of `CC(Cc1ccccc1)NCCn1cnc2c1c(=O)n(C)c(=O)n2C` (stereo not drawn), the survivor count under setting [7] was 0 of 6.

For `CC1CN(Cc2ccccc2)CC(C)N1` (stereo not drawn), the survivor count by setting is: (dose: 200.0 mg/kg/injection, schedule: Q01DX009 (ip), vehicle: water) 0 of 6; (dose: 400.0 mg/kg/injection, schedule: Q04DX003 (ip), vehicle: water) 0 of 6.

Take `CCCCC(CC)CO.[Ti]` (stereo not drawn): the survivor count under setting [6] is 0 of 6.

Consider `CC(C)=CCC/C(C)=C/COC(N)=O`, for which the survivor count under setting [7] is 2 of 6; the survivor count (dose: 200.0 mg/kg/injection, schedule: Q01DX009 (ip), vehicle: saline) is 0 of 6; the survivor count under setting [4] is on record as 6 of 6; the survivor count under setting [8] was 0 of 3 and 3 of 3.

Consider `O=C(NCCCCNC(=O)Nc1cccc(C2=NCCN2)c1)Nc1cccc(C2=NCCN2)c1`, for which the survivor count (dose: 92.0 mg/kg/injection, schedule: Q01DX Z (ip), vehicle: carboxymethylcellulose (CMC)) is 6 of 6.

Regarding `NCCCC(=O)NCCCCCCCCCCNC(=O)CCCN`, the survivor count (dose: 100.0 mg/kg/injection, schedule: Q01DX012 (ip), vehicle: saline) was 6 of 6.

With `CC[N+](C)(C)CCCOC(=O)C1C2CC3OC(=O)C1C3C2` (stereo not drawn), the survivor count under setting [5] is listed as 0 of 3.

`Cc1c(Cl)cccc1NC(=O)Nc1nccs1`: the survivor count is 3 of 3 and 6 of 6 under setting [1]; 1 of 3 under setting [8].

Consider `CCCCCCC(=O)[O][Hg][c]1ccccc1`, for which the survivor count is 2 of 6 (dose: 75.0 mg/kg/injection, schedule: Q01DX001 (ip), vehicle: other); 0 of 6 (dose: 150.0 mg/kg/injection, schedule: Q01DX001 (ip), vehicle: other); 0 of 6 (dose: 300.0 mg/kg/injection, schedule: Q01DX001 (ip), vehicle: other).

On to `Cc1ccc[n+]2c1ccc1c3ccccc3ccc12`, for which the survivor count is, setting by setting: (dose: 20.0 mg/kg/injection, schedule: Q01DX001 (ip), vehicle: saline) 3 of 6; under setting [9], 1 of 6; (dose: 80.0 mg/kg/injection, schedule: Q01DX001 (ip), vehicle: saline) 0 of 6; (dose: 100.0 mg/kg/injection, schedule: Q01DX001 (ip), vehicle: saline) 0 of 4; under setting [2], 0 of 4; under setting [3], 0 of 4.

Regarding `CN(C)C(=S)SCN1CCCCC1`, the survivor count under setting [10] is given as 0 of 6.

Regarding `Cc1c(Cl)cccc1NC(=O)c1c(Cl)c(Cl)c(Cl)c(Cl)c1C(=O)O`, the survivor count under setting [10] is 0 of 6.

As to `Cc1c2c(ccc3ccccc32)c[n+]2ccccc12`, the T/C (dose: 3.13 mg/kg/injection, schedule: Q01DX009 (ip), vehicle: saline) is 125 % of control; the T/C (dose: 6.25 mg/kg/injection, schedule: Q01DX009 (ip), vehicle: saline) is 137 % of control; the T/C under setting [11] is 127 % of control; the T/C (dose: 12.5 mg/kg/injection, schedule: Q01DX009 (ip), vehicle: saline) was 132 % of control. Moreover, the survivor count reads like this: (dose: 4.4 mg/kg/injection, schedule: Q01DX Z (ip), vehicle: methylcellulose (MC)) 6 of 6; (dose: 6.0 mg/kg/injection, schedule: Q01DX Z (ip), vehicle: methylcellulose (MC)) 3 of 6; (dose: 6.6 mg/kg/injection, schedule: Q01DX Z (ip), vehicle: methylcellulose (MC)) 2 of 6; (dose: 9.0 mg/kg/injection, schedule: Q03HX024 (ip), vehicle: saline) 4 of 10; (dose: 10.0 mg/kg/injection, schedule: Q01DX Z (ip), vehicle: carboxymethylcellulose (CMC)) 4 of 6; under setting [11], 1 of 6. Further, the survivor count was 0 of 10 (dose: 13.0 mg/kg/injection, schedule: Q03HX024 (ip), vehicle: saline); 0 of 6 (dose: 15.0 mg/kg/injection, schedule: Q01DX Z (ip), vehicle: methylcellulose (MC)); 4 of 6 (dose: 20.0 mg/kg/injection, schedule: Q01DX Z (ip), vehicle: carboxymethylcellulose (CMC)); 0 of 10 (dose: 20.0 mg/kg/injection, schedule: Q03HX024 (ip), vehicle: saline); 4 of 6 (dose: 25.0 mg/kg/injection, schedule: Q04DX003 (ip), vehicle: saline); 0 of 10 (dose: 30.0 mg/kg/injection, schedule: Q01DX009 (ip), vehicle: saline). Also, the survivor count (dose: 30.0 mg/kg/injection, schedule: Q03HX024 (ip), vehicle: saline) is recorded as 0 of 10; the survivor count (dose: 40.0 mg/kg/injection, schedule: Q01DX001 (ip), vehicle: carboxymethylcellulose (CMC)) was 2 of 6; the survivor count under setting [9] is recorded as 5 of 10; the survivor count (dose: 40.0 mg/kg/injection, schedule: Q04DX003 (ip), vehicle: saline) is reported as 0 of 10; the survivor count (dose: 60.0 mg/kg/injection, schedule: Q01DX001 (ip), vehicle: saline) is recorded as 0 of 10; the survivor count (dose: 60.0 mg/kg/injection, schedule: Q04DX003 (ip), vehicle: saline) is 0 of 10. The survivor count is, setting by setting: (dose: 100.0 mg/kg/injection, schedule: Q04DX003 (ip), vehicle: saline) 0 of 6; (dose: 200.0 mg/kg/injection, schedule: Q04DX003 (ip), vehicle: saline) 0 of 6; under setting [5], 0 of 6.
